Source: paper PMC12766987
These are yes or no findings as the source states them, for the method shown. In cells and extracts the contact can be indirect. Here binding means that the protein was enriched with, or labelled near, the bait; the list need not be complete. Tags and fused reporters may be left off the sequences shown. Values belong to the binder of their own block, whether it stands above or below them.

Molecular target: T1, Flag-tagged Calhm6 (OE-Calhm6 cells) (UniProt Q8C9E8)
T1 sequence: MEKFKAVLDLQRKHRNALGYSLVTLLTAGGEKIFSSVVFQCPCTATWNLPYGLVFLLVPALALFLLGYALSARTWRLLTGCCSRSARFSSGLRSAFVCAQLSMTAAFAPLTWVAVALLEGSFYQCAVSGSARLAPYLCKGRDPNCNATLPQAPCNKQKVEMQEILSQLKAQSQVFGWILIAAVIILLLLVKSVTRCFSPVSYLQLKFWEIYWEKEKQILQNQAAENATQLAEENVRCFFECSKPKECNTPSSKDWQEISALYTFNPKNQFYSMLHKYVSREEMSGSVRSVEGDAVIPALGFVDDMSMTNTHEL
Assay: affinity purification with mass spectrometry; lysates of OE-Calhm6 RAW264.7 cells, untreated or treated with IL-4 (20 ng/mL) or CaCl2 (2 mM); Flag-tagged Calhm6 precipitated with anti-Flag beads, precipitates analysed by mass spectrometry

binding: binds
B1: CaMK4 (Calcium/calmodulin-dependent protein kinase IV), endogenous in RAW264.7 (protein, UniProt P08414 1-469)
chain: MLKVTVPSCPSSPCSSVTASTENLVPDYWIDGSNRDPLGDFFEVESELGRGATSIVYRCKQKGTQKPYALKVLKKTVDKKIVRTEIGVLLRLSHPNIIKLKEIFETPTEISLVLELVTGGELFDRIVEKGYYSERDARDAVKQILEAVAYLHENGIVHRDLKPENLLYATPAPDAPLKIADFGLSKIVEHQVLMKTVCGTPGYCAPEILRGCAYGPEVDMWSVGIITYILLCGFEPFYDERGDQFMFRRILNCEYYFISPWWDEVSLNAKDLVKKLIVLDPKKRLTTFQALQHPWVTGKAANFVHMDTAQKKLQEFNARRKLKAAVKAVVASSRLGSASSSHTSIQENHKASSDPPSTQDAKDSTDLLGKKMQEEDQEEDQVEAEASADEMRKLQSEEVEKDAGVKEEETSSMVPQDPEDELETDDPEMKRDSEEKLKSVEEEMDPMTEEEAPDAGLGVPQQDAIQPEY

binding: binds
B2: Chp1 (calcineurin B homologous protein 1), endogenous in RAW264.7 (protein, UniProt P61022 1-195)
chain: MGSRASTLLRDEELEEIKKETGFSHSQITRLYSRFTSLDKGENGTLSREDFQRIPELAINPLGDRIINAFFSEGEDQVNFRGFMRTLAHFRPIEDNEKSKDVNGPEPLNSRSNKLHFAFRLYDLDKDDKISRDELLQVLRMMVGVNISDEQLGSIADRTIQEADQDGDSAISFTEFVKVLEKVDVEQKMSIRFLH
